Experimental data as given in PMC3879166.
No constants are given. Whether binding was seen depends on the method and setting. For some of these results: In cells and extracts the contact can be indirect. Some results given as binding are weak or reduced against the parent protein; the word gives no strength. For some of these results: Where a sequence is shown, tags or fusion partners need not be part of it.

Chains of the proteins cited; added tags and fusions are not shown.
UniProt P49841: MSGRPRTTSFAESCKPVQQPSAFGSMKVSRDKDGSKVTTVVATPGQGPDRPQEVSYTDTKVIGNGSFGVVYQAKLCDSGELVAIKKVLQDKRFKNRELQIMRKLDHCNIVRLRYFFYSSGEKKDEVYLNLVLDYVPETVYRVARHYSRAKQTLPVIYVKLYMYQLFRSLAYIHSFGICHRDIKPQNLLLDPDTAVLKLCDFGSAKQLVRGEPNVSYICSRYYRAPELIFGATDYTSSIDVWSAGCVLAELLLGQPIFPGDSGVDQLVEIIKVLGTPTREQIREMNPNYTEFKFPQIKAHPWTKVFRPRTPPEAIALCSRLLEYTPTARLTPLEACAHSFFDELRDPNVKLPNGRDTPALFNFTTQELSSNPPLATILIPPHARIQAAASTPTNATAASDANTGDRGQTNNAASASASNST
UniProt P04198: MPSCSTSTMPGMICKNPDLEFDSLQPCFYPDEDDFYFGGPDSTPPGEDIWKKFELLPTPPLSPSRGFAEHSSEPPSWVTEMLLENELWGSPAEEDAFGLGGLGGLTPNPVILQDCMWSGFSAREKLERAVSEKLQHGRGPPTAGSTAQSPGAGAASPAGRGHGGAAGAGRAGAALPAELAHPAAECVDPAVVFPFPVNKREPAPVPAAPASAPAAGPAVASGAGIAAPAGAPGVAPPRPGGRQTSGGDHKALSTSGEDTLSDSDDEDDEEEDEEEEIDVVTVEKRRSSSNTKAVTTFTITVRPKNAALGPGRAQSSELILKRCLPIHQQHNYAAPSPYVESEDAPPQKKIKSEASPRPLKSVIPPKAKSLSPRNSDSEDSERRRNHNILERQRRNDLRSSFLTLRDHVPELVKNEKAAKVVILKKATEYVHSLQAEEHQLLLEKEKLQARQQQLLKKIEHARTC

Columns and labels:
[1] = biological target: GSK3β (endogenous, CHP134 cells) (human (endogenous in CHP134)) (UniProt P49841); test: co-IP; whole lysates of CHP134 cells, endogenous proteins; pre-cleared, primary antibody overnight at 4°C, protein G-Sepharose; lysis buffer 50 mM Tris-HCl pH 8.0, 137 mM NaCl, 2.7 mM KCl, 1% Triton X; immunoblotting
[2] = biological target: MYCN protein (endogenous, CHP134 cells) (human (endogenous in CHP134)) (UniProt P04198); test: as above
GST-fused MYCN (Abnova) = GST-fused MYCN (Abnova) (UniProt P04198); test: pull-down; 0.5 µg purified NCYM with 0.5 µg GST-fused protein, 2 h at 4°C; recovered on glutathione-sepharose beads; binding buffer 50 mM Tris-HCl pH 8.0, 1 mM EDTA, 150 mM NaCl, 0.1% Nonidet P-40; immunoblotting; both purified
[3] = biological target: GST-fused GSK3β (Promega) (UniProt P49841); test: as above

B1: NCYM protein (endogenous, CHP134 cells) (protein, UniProt P40205 1-109)
chain: MQHPPCEPGNCLSLKEKKITEGSGGVCWGGETDASNPAPALTACCAAEREANVEQGLAGRLLLCNYERRVVRRCKIAGRGRAPLGTRPLDVSSFKLKEEGRPPCLKINK
- binding [1]: binds
- binding [2]: binds

B2: purified full-length NCYM protein (from GST-NCYM, GST cleaved by thrombin) (protein, UniProt P40205 1-109)
chain: MQHPPCEPGNCLSLKEKKITEGSGGVCWGGETDASNPAPALTACCAAEREANVEQGLAGRLLLCNYERRVVRRCKIAGRGRAPLGTRPLDVSSFKLKEEGRPPCLKINK
- binding (GST-fused MYCN (Abnova)): binds
- binding [3]: binds
